# Assay results taken from the supplement of paper PMC8728848.
# This is one part of the list.
# B1: Clec18A (Homo sapiens) (protein)
# chain: PFHTCDLRIDGDCFMVSSEADTYYRARMKCQRKGGVLAQIKRQKVQDILAFYLGRLETTNEVIDSDFETRNFWIGLTYKTAKDSFRWATGEHQAFTSFAFGQPDNHGFGNCVELQASAAFNWNDQRCKTRNRYICQ
# Tests used:
# Experiment in all cases: glycan array binding signal (z-score within array); higher = stronger binding
# Settings in all cases: glycan notation: IUPAC condensed, linker removed
# [1] = target: Gal(a1-3)Gal(b1-4)GlcNAc(b1-2)Man
# In short: (§1)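 Glycan array data came from 3228 arrays in the Consortium for Functional Glycomics database, and only arrays with an available protein sequence were kept. Glycan names were put into IUPAC-condensed notation, and columns mapping to the same glycan were averaged. The binding signal is a within-array Z-score, averaged across arrays of one protein sequence run at different concentrations or buffers and across linkers. A negative Z-score can be read as non-binding.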
# [2] = target: Gal(a1-3)Gal(b1-4)GlcNAc(b1-2)Man(a1-3)[Gal(a1-3)Gal(b1-4)GlcNAc(b1-2)Man(a1-6)]Man(b1-4)GlcNAc(b1-4)GlcNAc
# In short: as §1
# [3] = target: Gal(a1-3)Gal(b1-4)GlcNAc(b1-3)GalNAc
# In short: as §1
# [4] = target: Gal(a1-3)Gal(b1-4)GlcNAc(b1-6)GalNAc
# In short: as §1
# [5] = target: Gal(a1-3)Gal(b1-4)[Fuc(a1-3)]GlcNAc
# In short: as §1
# [6] = target: Gal(a1-3)Gal(b1-4)[Fuc(a1-3)]GlcNAc(b1-2)Man(a1-3)[Gal(a1-3)Gal(b1-4)[Fuc(a1-3)]GlcNAc(b1-2)Man(a1-6)]Man(b1-4)GlcNAc(b1-4)GlcNAc
# In short: as §1
# Gal(a1-3)GalNAc = target: Gal(a1-3)GalNAc
# In short: as §1
# [7] = target: Gal(a1-3)[Gal(a1-4)]Gal(b1-4)GlcNAc
# In short: as §1
# [8] = target: Gal(a1-4)Gal(b1-3)GlcNAc(b1-2)Man(a1-3)[Gal(a1-4)Gal(b1-3)GlcNAc(b1-2)Man(a1-6)]Man(b1-4)GlcNAc(b1-4)GlcNAc
# In short: as §1
# Gal(a1-4)Gal(b1-4)Glc = target: Gal(a1-4)Gal(b1-4)Glc
# In short: as §1
# Gal(a1-4)Gal(b1-4)GlcNAc = target: Gal(a1-4)Gal(b1-4)GlcNAc
# In short: as §1
# [9] = target: Gal(a1-4)Gal(b1-4)GlcNAc(b1-2)Man(a1-3)[Gal(a1-4)Gal(b1-4)GlcNAc(b1-2)Man(a1-6)]Man(b1-4)GlcNAc(b1-4)GlcNAc
# In short: as §1
# [10] = target: Gal(a1-4)Gal(b1-4)GlcNAc(b1-3)Gal(b1-4)Glc
# In short: as §1
# Gal(a1-4)GlcNAc = target: Gal(a1-4)GlcNAc
# In short: as §1
# Gal(a1-6)Glc = target: Gal(a1-6)Glc
# In short: as §1
# Gal(b1-2)Gal = target: Gal(b1-2)Gal
# In short: as §1
# Gal(b1-3)Gal = target: Gal(b1-3)Gal
# In short: as §1
# Gal(b1-3)Gal(b1-4)GlcNAc = target: Gal(b1-3)Gal(b1-4)GlcNAc
# In short: as §1
# Gal(b1-3)GalNAc = target: Gal(b1-3)GalNAc
# In short: as §1
# [11] = target: Gal(b1-3)GalNAc(a1-3)[Fuc(a1-2)]Gal(b1-4)Glc
# In short: as §1
# [12] = target: Gal(b1-3)GalNAc(a1-3)[Fuc(a1-2)]Gal(b1-4)GlcNAc
# In short: as §1
# Gal(b1-3)GalNAc(b1-3)Gal = target: Gal(b1-3)GalNAc(b1-3)Gal
# In short: as §1
binder,measurement,setting,value
B1,glycan array binding signal (z-score),[1],-0.466
same,glycan array binding signal (z-score),[2],0.582
same,glycan array binding signal (z-score),[3],0.774
same,glycan array binding signal (z-score),[4],-0.483
same,glycan array binding signal (z-score),[5],1.37
same,glycan array binding signal (z-score),[6],0.838
same,glycan array binding signal (z-score),Gal(a1-3)GalNAc,-0.489
same,glycan array binding signal (z-score),[7],2.29
same,glycan array binding signal (z-score),[8],1.19
same,glycan array binding signal (z-score),Gal(a1-4)Gal(b1-4)Glc,0.47
same,glycan array binding signal (z-score),Gal(a1-4)Gal(b1-4)GlcNAc,-0.513
same,glycan array binding signal (z-score),[9],-0.294
same,glycan array binding signal (z-score),[10],2.17
same,glycan array binding signal (z-score),Gal(a1-4)GlcNAc,-0.546
same,glycan array binding signal (z-score),Gal(a1-6)Glc,-0.659
same,glycan array binding signal (z-score),Gal(b1-2)Gal,-0.826
same,glycan array binding signal (z-score),Gal(b1-3)Gal,-0.801
same,glycan array binding signal (z-score),Gal(b1-3)Gal(b1-4)GlcNAc,-0.255
same,glycan array binding signal (z-score),Gal(b1-3)GalNAc,-0.497
same,glycan array binding signal (z-score),[11],-0.687
same,glycan array binding signal (z-score),[12],0.394
same,glycan array binding signal (z-score),Gal(b1-3)GalNAc(b1-3)Gal,-0.158
